Data on 16 molecules can be found in PubChem BioAssay (NCATS).

This experiment is described as follows: qHTS for identification of novel therapeutic agents for treatment of microphthalmiaassociated transcription factor (MiT) renal cell carcinoma (RCC) (AID 1963991). As to conditions: CellTiter-Glo, 48 h; for z-score: stronger effect = lower value. An outline of the steps: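 UOK109/UOK124/UOK145 (TFE3 fusions, three partners); 500 cells/well; MIPE v4.0, 1912 cpds, 11 conc.; 48 h, 37 C; CellTiter-Glo, 15 min RT; lum. Norm.: DMSO 100%, empty 0%.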
On the technique in general: In qHTS, concentration-response curves come from the screen itself.

Where [1] appears, read: TFE3-RCC UOK109 viability, measured here: UOK109 Z-AUC.
Where [2] appears, read: TFE3-RCC viability, measured here: UOK124 Z-AUC.
Setting [3] is: TFE3-RCC viability, measured here: UOK124 cell viability.
[4] abbreviates: TFE3-RCC viability, measured here: UOK145 Z-AUC.
Setting [5] is: TFE3-RCC viability, measured here: UOK145 cell viability.

The list shows a part of the results. The main result of the screen is listed elsewhere. These columns were measured beside it and carry no call. The list favours compounds with an active or inconclusive main result. The note in brackets gives the kind of curve behind each potency; many fits are weak.

As a reminder, the AC50 is the concentration giving half of the maximal activity seen.

Turning to `CN(C)CC=CC(=O)Nc1cc2c(Nc3ccc(F)c(Cl)c3)ncnc2cc1O[C@H]1CCOC1`, the z-score reads like this: under setting [1], -3.12; under setting [2], -1.69; under setting [4], -0.591. For the same molecule, the AC50 runs as follows: under setting [3], 4.69 µM [falling, full curve]; under setting [5], 5.9 µM [falling, partial curve].

`Nc1nc(Cl)nc2c1ncn2[C@@H]1O[C@H](CO)[C@@H](O)[C@H]1F`: the z-score was -0.708 under setting [1], 0.914 under setting [2] and -2.92 under setting [4]. Further, the AC50 is, setting by setting: under setting [3], 0.0743 µM [falling, full curve]; under setting [5], 0.0209 µM [falling, partial curve, poor fit].

Turning to `C[C@@]1(C(=O)Nc2ccc(F)nc2)CCCN1c1nc(Nc2cc(C3CC3)[nH]n2)c2cccn2n1`, the z-score by setting is: under setting [1], -0.107; under setting [2], -1.34; under setting [4], -0.0771. Moreover, the AC50 runs as follows: under setting [3], 1.48 µM [falling, partial curve]; under setting [5], 20.9 µM [falling, partial curve].

For the molecule `O=C(c1ccc(C=Cc2n[nH]c3ccccc23)cc1)N1CCNCC1`, the z-score was 0.493 under setting [1], 0.351 under setting [2] and -0.163 under setting [4]. Also, the AC50 runs as follows: under setting [3], 20.9 µM [falling, partial curve]; under setting [5], 18.7 µM [falling, partial curve].

Molecule `CC(C)c1c(C(=O)Nc2ccccc2)c(-c2ccccc2)c(-c2ccc(F)cc2)n1CC[C@H](O)C[C@@H](O)CC(=O)O` gave a z-score under setting [1] of 0.25, a z-score under setting [2] of -0.186 and a z-score under setting [4] of 0.147. Besides, the AC50 runs as follows: under setting [3], 11.8 µM [falling, partial curve]; under setting [5], 26.4 µM [falling, single point].

For the molecule `Fc1cc(-c2cccc3ncc(-c4cnn(C5CCNCC5)c4)nc23)cc(F)c1CN1CCOCC1`, the z-score under setting [1] is 0.0251, the z-score under setting [2] was -0.336 and the z-score under setting [4] amounted to 0.0908. The AC50 runs as follows: under setting [3], 9.35 µM [falling, full curve]; under setting [5], 20.9 µM [falling, partial curve].

As to `CN1CCC(COc2cnc(-c3cccc(Cn4nc(-c5cccc(C#N)c5)ccc4=O)c3)nc2)CC1`, the z-score was -1.16 under setting [1], 0.306 under setting [2] and -1.7 under setting [4]. Moreover, the AC50 is, setting by setting: under setting [3], 8.33 µM [falling, single point]; under setting [5], 0.469 µM [falling, full curve].

Turning to `COc1cc(OC)c(C=CS(=O)(=O)Cc2ccc(OC)c(NCC(=O)O)c2)c(OC)c1`, the z-score reads like this: under setting [1], -0.596; under setting [2], -0.99; under setting [4], 0.171. The AC50 runs as follows: under setting [3], 0.166 µM [falling, full curve]; under setting [5], 0.743 µM [falling, full curve].

`O=C(C=CC#Cc1cccc(NS(=O)(=O)c2ccccc2)c1)NO` registered a z-score under setting [1] of -0.395, a z-score under setting [2] of -2.68 and a z-score under setting [4] of -0.452. Further, the AC50 reads like this: under setting [3], 6.62 µM [falling, full curve]; under setting [5], 13.2 µM [falling, partial curve].

`COc1cc2ncnc(-n3nc(-c4ccccn4)nc3N)c2cc1OC`: the z-score by setting is: under setting [1], 0.568; under setting [2], -0.123; under setting [4], 0.0897. Further, the AC50 is, setting by setting: under setting [3], 5.9 µM [falling, full curve]; under setting [5], 4.69 µM [falling, full curve].

With `Cn1c(NCCN(CCO)CCCc2ccc([N+](=O)[O-])cc2)cc(=O)n(C)c1=O`, the z-score runs as follows: under setting [1], 0.11; under setting [2], 0.405; under setting [4], 0.313. Further, the AC50 by setting is: under setting [3], 23.5 µM [falling, single point]; under setting [5], 18.7 µM [falling, partial curve].

Molecule `CC(=O)ON=C1C(c2c(O)[nH]c3cc(Br)ccc23)=Nc2ccccc21` had a z-score under setting [1] of -1.1, a z-score under setting [2] of -0.398 and a z-score under setting [4] of 0.0432. Also, the AC50 runs as follows: under setting [3], 3.72 µM [falling, full curve]; under setting [5], 4.18 µM [falling, full curve].

Consider `CO[C@H]1C[C@@H]2CC[C@@H](C)[C@@](O)(O2)C(=O)C(=O)N2CCCC[C@@H]2C(=O)O[C@H]([C@H](C)C[C@@H]2CC[C@H](OCCO)[C@H](OC)C2)CC(=O)[C@H](C)C=C(C)[C@@H](O)[C@@H](OC)C(=O)[C@H](C)C[C@H](C)C=CC=CC=C1C`, for which the z-score was -0.65 under setting [1], -0.857 under setting [2] and -1.32 under setting [4]. The AC50 under setting [3] is 3.32 µM [falling, partial curve] and the AC50 under setting [5] is 3.72 µM [falling, full curve].

For `CCOC(=O)N1CCN([N+]([O-])=NOc2ccc([N+](=O)[O-])cc2C#N)CC1`, the z-score runs as follows: under setting [1], -0.786; under setting [2], -0.331; under setting [4], 1.61. In addition, the AC50 is 2.35 µM [falling, full curve] under setting [3] and 2.09 µM [falling, full curve] under setting [5].

Regarding `Nc1nc2c(ncn2COC(CO)CO)c(=O)[nH]1`, the z-score runs as follows: under setting [1], -0.201; under setting [2], -1.19; under setting [4], -0.938. The AC50 is 18.7 µM [falling, partial curve, poor fit] under setting [3] and 9.35 µM [falling, partial curve] under setting [5].

Regarding `O=c1[nH]c(=O)n([C@H]2C[C@@H](O)[C@@H](CO)O2)cc1C(F)(F)F`, the z-score is 0.697 under setting [1], -0.157 under setting [2] and 0.135 under setting [4]. Further, the AC50 is, setting by setting: under setting [3], 8.33 µM [falling, full curve]; under setting [5], 10.5 µM [falling, partial curve].
